In publication PMC8879280, “A Low-Activity Polymorphic Variant of Human NEIL2 DNA Glycosylase”:
Numbering of substitutions follows the chain as printed. For at least one entry, the source does not settle the construct or the ends of the probe. The comparison behind a weaker result is the experiment's own reference, which may not be listed here. Where a protein sequence is shown, tags need not be part of it.

How the values were obtained:
Test in all cases: EMSA
[1] = target: T1, hNEIL2 R103W (Homo sapiens) (UniProt Q969S2); settings: 5 mM Mg2+, smear, weaker than WT and than THF:G duplex; 25 mM potassium phosphate pH 7.5, 5 mM MgCl2, 1 mM DTT, 0.5 mg/mL BSA, 10% glycerol; 35 nM bubble or 100 nM duplex ligand; 5 min on ice, 8% native PAGE at 4 C; recombinant protein; protein details: C-terminal GHHHHHH; label: 32P
T1 sequence (looked up, limits assumed): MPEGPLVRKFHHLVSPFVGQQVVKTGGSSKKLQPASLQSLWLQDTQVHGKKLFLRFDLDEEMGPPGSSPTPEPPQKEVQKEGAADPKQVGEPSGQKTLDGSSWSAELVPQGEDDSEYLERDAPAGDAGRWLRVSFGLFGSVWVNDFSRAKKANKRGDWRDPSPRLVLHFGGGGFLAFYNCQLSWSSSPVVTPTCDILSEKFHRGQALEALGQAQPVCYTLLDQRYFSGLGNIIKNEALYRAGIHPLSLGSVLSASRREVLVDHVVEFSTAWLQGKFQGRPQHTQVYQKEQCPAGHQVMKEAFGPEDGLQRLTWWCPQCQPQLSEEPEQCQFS

hNEIL2 WT (Homo sapiens) = target: T2, hNEIL2 WT (Homo sapiens) (UniProt Q969S2); settings: 5 mM Mg2+, smear, weaker than THF:G duplex; 25 mM potassium phosphate pH 7.5, 5 mM MgCl2, 1 mM DTT, 0.5 mg/mL BSA, 10% glycerol; 35 nM bubble or 100 nM duplex ligand; 5 min on ice, 8% native PAGE at 4 C; recombinant protein; protein details: C-terminal GHHHHHH; label: 32P
T2 sequence (looked up, limits assumed): T1 sequence (looked up, limits assumed) with W103R

[2] = target: T3, hNEIL2 P304T (Homo sapiens) (UniProt Q969S2); settings: 5 mM Mg2+, smear, weaker than WT and than THF:G duplex; 25 mM potassium phosphate pH 7.5, 5 mM MgCl2, 1 mM DTT, 0.5 mg/mL BSA, 10% glycerol; 35 nM bubble or 100 nM duplex ligand; 5 min on ice, 8% native PAGE at 4 C; recombinant protein; protein details: C-terminal GHHHHHH; label: 32P
T3 sequence (looked up, limits assumed): T1 sequence (looked up, limits assumed) with W103R, P304T

Measured: binding result

CTCTCCCTTCCCTCCTTTCCTCT (double strand) [undamaged C:G duplex (23C//23comp)]
binds more weakly: all assays above
